{"source": "PubChem BioAssay AID493014", "about": "(National Center for Advancing Translational Sciences (NCATS), 2011)", "note": "Hit rate of the full screen: of about 340,000 compounds, about 170 (0.05%) were called active. The shares of active, inactive and inconclusive entries below differ from those in the screen. The call rests on the fitted dose curve; in most records, active means well fitted inhibition curve with a large enough effect in the signal ratio, with a control signal flat (not every such curve was filed as active); inconclusive means small, poorly fitted or top-dose-only effect, or effect the other way, or a change in a side signal; inactive means flat fitted curve, though single readings scatter; the % refers to the signal ratio. A potency beside an inconclusive call is a rough fit, not a confirmed value. Potency means the concentration at half of the fitted maximal effect."}
{"assay": "qHTS Assay to Find Inhibitors of Chronic Active B-Cell Receptor Signaling;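 on activity change, negative = inhibition: plate controls were basal doxycycline-induced cells for no effect and cells given 10 µM MG132 for full effect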", "details": "ABC-DLBCL IkBa-CBG/CBR reporter, luminescence ratio (green luciferase fused to IkBa over red control in TMD8 lymphoma cells), 4 h; activity change, negative = inhibition: at 46.1 µM (top of the series) unless noted", "method_in_brief": "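Doxycycline induced both beetle luciferases in TMD8 lymphoma cells; IKK-driven degradation limits the IkappaBalpha-fused green signal, while red luminescence normalises for cell number and nonspecific effects. Compounds tested up to 46 uM, 4 hrs.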"}
{"smiles": "O=C(CSc1ccccc1Cl)c1ccco1", "activity change, negative = inhibition": "inactive: -0.632%"}
{"smiles": "CC1(OC(=O)C2CCCC2)C(=O)C=C2C=C(c3ccsc3)N(Cc3ccccc3)C=C2C1=O", "note": "(stereo unspecified)", "activity change, negative = inhibition": "inconclusive: 7.51%"}
{"smiles": "CCNc1nc(N)nc(Oc2ccc(C(=O)OC)cc2)n1", "activity change, negative = inhibition": "inconclusive: -0.57%"}
{"smiles": "O=S(=O)(Nc1cccc(-c2ccc3nncn3n2)c1)c1cccc(F)c1", "Potency": "inconclusive: 16.4 µM [falling, single point]"}
{"smiles": "Cc1ccc([N+](=O)[O-])cc1N=Nc1c(C)[nH]n(C(N)=S)c1=O", "Potency": "inconclusive: 3.98 µM [falling, single point]"}
{"smiles": "Cc1onc(-c2ccccc2)c1CNS(=O)(=O)c1ccccc1", "activity change, negative = inhibition": "inconclusive: 5.6%"}
{"smiles": "COC(=O)CN1C(C)=Nc2ccc(C)cc2C1c1ccccc1", "note": "(stereo unspecified)", "activity change, negative = inhibition": "inconclusive: 17.7%"}
{"smiles": "O=C(N/N=C/c1ccccn1)c1cc(-c2ccncc2)nc2ccccc12", "Potency": "inconclusive: 16.4 µM [falling, partial curve, poor fit]"}
{"smiles": "Cc1nn(-c2ccccc2)c(C)c1/C=N/n1c(-c2ccncc2)n[nH]c1=S", "activity change, negative = inhibition": "inconclusive: -41.1%"}
{"smiles": "O=[N+]([O-])c1ccc2nc(SCc3cn4ccccc4n3)[nH]c2c1", "activity change, negative = inhibition": "inconclusive: 14.7%"}
{"smiles": "CCOC(=O)C(=O)Nc1ccc(F)cc1", "Potency": "inconclusive: 18.4 µM [falling, partial curve]"}
{"smiles": "CCOC(=O)C1CCN(C(=O)Nc2ccc(OC)c(OC)c2)CC1", "activity change, negative = inhibition": "inconclusive: -2.62%"}
{"smiles": "CC1(C)CC(=O)C=C(c2ccc(-c3ccccc3)cc2)C1", "activity change, negative = inhibition": "inconclusive: 8.95%"}
{"smiles": "CCOc1ccc2nc(N3CCCC(C(=O)NCCCN4CC(C)CC(C)C4)C3)sc2c1", "note": "(stereo unspecified)", "Potency": "inconclusive: 5.01 µM [falling, partial curve, poor fit]"}
{"smiles": "O=C1Nc2ccc(Br)cc2C1=Nc1ccc(-c2nnc3n2CCCCC3)cc1", "Potency": "inconclusive: 29.1 µM [falling, partial curve, poor fit]"}
{"smiles": "COc1ccccc1CNC(=O)CCCNC(=O)Cn1cnc2sc(C)c(C)c2c1=O", "activity change, negative = inhibition": "inconclusive: -17.4%"}
{"smiles": "Oc1c(Br)cc(Br)cc1CNc1cnc2ccccc2c1", "activity change, negative = inhibition": "inconclusive: -5.47%"}
{"smiles": "O=C(O)c1ccc(NC2=C(N3CCOCC3)C(=O)c3ccccc3C2=O)cc1", "Potency": "inconclusive: 10.3 µM [falling, partial curve]"}
{"smiles": "COc1ccc2c(c1)c(CC(=O)OC(C)C(=O)N(C)C)c(C)n2C(=O)c1ccc(Cl)cc1", "note": "(stereo unspecified)", "activity change, negative = inhibition": "inconclusive: -11.2%"}
{"smiles": "O=C(/C=C\\c1ccco1)Nc1cc([N+](=O)[O-])ccc1F", "Potency": "inconclusive: 3.26 µM [falling, full curve]"}
{"smiles": "O=C(NCc1ccccn1)c1ccc(Cn2c(=S)[nH]c3ccc(Br)cc3c2=O)cc1", "activity change, negative = inhibition": "inactive: -8.35%"}
